# Values quoted from earlier work, collected in publication PMC9915011, “Polymyxin B Conjugates with Bio-Inspired Synthetic Polymers of Different Nature” (International Journal of Molecular Sciences, 2023).
# System: S. aureus
# Conditions: cited from earlier work
# Source text: A series of conjugates of loracarbef (cephalosporins) and ciprofloxacin (fluroquinolones) with sideromycins (siderophores) was synthesized and tested against a panel of ESKAPEE bacteria (Enterococcus faecium, S. aureus, Klebsiella pneumoniae, A. baumannii, P. aeruginosa, Enterobacter aerogenes, E. coli).
smiles,measurement,value
O=C(O)c1cn(C2CC2)c2cc(N3CCNCC3)c(F)cc2c1=O [ciprofloxacin],MIC,0.5 µM
